Laboratory results as given in PubChem BioAssay AID588590 (National Center for Advancing Translational Sciences (NCATS), 2011).
Hit rate of the full screen: of about 390,000 compounds, about 4,000 (1%) were called active. The inconclusive results got no clear call from the source; some entries with a clear call stand among them for comparison. Calls follow the shape of the dose curve; as a rule, active = well fitted inhibition curve with a large enough effect; inconclusive = small, poorly fitted or top-dose-only effect, or another doubt; inactive = no such curve, though single readings can be large or run the other way. Potencies of inconclusive entries are doubtful fits and often do not repeat.

Chains of the proteins cited; added tags and fusions are not shown. Lines headed by an entry give the natural chain unless they say otherwise; changes in a name come on top.
UniProt Q9UNA4: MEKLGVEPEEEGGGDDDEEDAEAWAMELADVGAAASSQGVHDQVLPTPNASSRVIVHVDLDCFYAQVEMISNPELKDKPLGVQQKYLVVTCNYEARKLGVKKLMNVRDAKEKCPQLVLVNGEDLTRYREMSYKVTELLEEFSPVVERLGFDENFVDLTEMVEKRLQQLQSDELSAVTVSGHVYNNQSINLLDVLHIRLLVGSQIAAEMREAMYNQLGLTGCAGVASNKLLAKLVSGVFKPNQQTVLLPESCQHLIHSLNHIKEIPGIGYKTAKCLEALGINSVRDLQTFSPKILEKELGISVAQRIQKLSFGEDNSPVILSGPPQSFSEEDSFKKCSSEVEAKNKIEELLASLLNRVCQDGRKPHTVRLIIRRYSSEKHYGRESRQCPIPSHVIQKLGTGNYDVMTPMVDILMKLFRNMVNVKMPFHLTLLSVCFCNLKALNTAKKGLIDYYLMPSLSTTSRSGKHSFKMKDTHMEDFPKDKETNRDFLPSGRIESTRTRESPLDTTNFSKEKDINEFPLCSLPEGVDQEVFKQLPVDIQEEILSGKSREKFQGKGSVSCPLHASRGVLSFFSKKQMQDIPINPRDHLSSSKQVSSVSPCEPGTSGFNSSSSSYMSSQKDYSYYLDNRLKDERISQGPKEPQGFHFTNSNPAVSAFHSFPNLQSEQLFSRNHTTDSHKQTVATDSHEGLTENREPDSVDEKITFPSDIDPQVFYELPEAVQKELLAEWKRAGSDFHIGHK

Each molecule was assayed against DNA polymerase iota (Homo sapiens) (UniProt Q9UNA4) (assay: qHTS for Inhibitors of Polymerase Iota). Conditions: Pol iota fluorescent replication assay, 10 min; series mostly up to 115 µM; activity, negative = inhibition: at the top concentration.
Method in brief: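 Pol iota at 10 nM preincubated 15 min with compounds at room temperature; reaction started with fluorescent substrate, 50 nM final. Fluorescence read kinetically at 0 and 10 min; buffer-only wells as negative control.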
Potency is read from the fitted curve at half-maximal effect.

Potency, active:
CCOC(=O)C1Nc2ccc(Br)cc2C2C=CCC12 (stereo unspecified) 44.7 µM
COc1ccc(CC2NCCC3=CC(=O)CCC32)cc1O (stereo unspecified) 56.2 µM

Potency, inconclusive:
O=C(O)c1ccccc1-c1ccc(/C=C2\SC(=O)N(c3ccccc3)C2=O)o1 15.8 µM [inhibitor, partial curve]
O=C(Cn1ncc2c1-c1ccccc1OC2)Nc1cccc(Cl)c1 3.16 µM [inhibitor, partial curve, poor fit]
CC1CCCN(CCCNC(=O)c2nn(C)c3c2CS(=O)(=O)c2ccccc2-3)C1 (stereo unspecified) 63.1 µM [inhibitor, single point]
COc1ccccc1CN(C)C(=O)c1cccc(S(=O)(=O)N2CCCC2)c1 79.4 µM [inhibitor, single point]
O=[N+]([O-])c1ccc(-c2c(-c3ccccc3)ncc3ccc(F)cc23)cc1 70.8 µM [inhibitor, single point]
CN(C)c1ccc(-c2sc(Nc3ccccc3)n[n+]2-c2ccc(F)cc2)cc1 31.6 µM [inhibitor, single point]
COc1ccccc1NC(=O)C1=C(C)NC(SCC(=O)c2ccccc2)=C(C#N)C1c1ccco1 (stereo unspecified) 8.91 µM [inhibitor, full curve, poor fit]
O=C(O)c1ccc(N2C(=O)CSC2=S)cc1 28.2 µM [inhibitor, partial curve, poor fit]
CC(=O)C1=C(O)C(=O)N(Cc2ccccc2)C1c1ccccc1F (stereo unspecified) 20 µM [inhibitor, full curve, poor fit]
COc1cc(/C=C/C(=O)O)cc(S(=O)(=O)Nc2ccccc2C(=O)NCc2ccco2)c1OC 22.4 µM [inhibitor, full curve]
CCOC(=O)C1=NOC2COC3(CCN(c4ncccn4)CC3)OCC12 (stereo unspecified) 89.1 µM [inhibitor, single point]
Cc1ccc(N2CC(C(=O)N3CCN(c4ccccn4)CC3)CC2=O)cc1 (stereo unspecified) 15.8 µM [inhibitor, full curve, poor fit]
Cc1ccc(-c2nc(-c3cccnc3)no2)cc1 15.8 µM [inhibitor, partial curve, poor fit]
C=CCN1C(=O)C(O)(CC(=O)c2ccc(-n3cccc3)cc2)c2ccccc21 (stereo unspecified) 89.1 µM [inhibitor, partial curve, poor fit]
Cc1cccc(NC(=O)C2CCCN2S(=O)(=O)c2cccc3nsnc23)c1C (stereo unspecified) 89.1 µM [inhibitor, single point]
COc1ccc(C2C(C(C)=O)=C(C)N=c3s/c(=C\c4ccco4)c(=O)n32)c(OC)c1 (stereo unspecified) 10 µM [inhibitor, full curve, poor fit]
Cc1cccc(C(=O)Nc2ccc(O)c3c(=O)cc(-c4ccccc4Cl)oc23)c1 12.6 µM [inhibitor, partial curve, poor fit]
COc1ccc(-c2noc(-c3cccs3)n2)cc1OC 89.1 µM [inhibitor, single point]
Cc1ccc(CCNC(=O)c2cc(-c3ccccc3)n[nH]2)cc1 89.1 µM [inhibitor, single point]
CCN(CC(=O)Nc1cc(Cl)ccc1C)C(=O)c1oc2ccc(OC)cc2c1C 79.4 µM [inhibitor, partial curve, poor fit]
O=c1c2c3nc4ccccc4nc3n(Cc3ccccc3)c2ncn1Cc1ccco1 11.2 µM [inhibitor, full curve, poor fit]
CCn1c(=N)n(CC(=O)c2cccc([N+](=O)[O-])c2)c2ccccc21 50.1 µM [inhibitor, partial curve, poor fit]
O=C(Nc1ccc(S(=O)(=O)Nc2nccs2)cc1)C1=NN(c2ccccc2)C(=O)CC1 44.7 µM [inhibitor, partial curve]
CS(=O)(=O)c1cc([N+](=O)[O-])c(Sc2nc3ccccc3[nH]2)c([N+](=O)[O-])c1 79.4 µM [inhibitor, partial curve]
O=C(NCc1ccco1)c1cc2nc(C3CC3)cc(C(F)(F)F)n2n1 44.7 µM [inhibitor, partial curve, poor fit]
Cc1ccc(F)cc1NC(=O)COC(=O)c1ccc2ncsc2c1 15.8 µM [inhibitor, partial curve, poor fit]
CCc1ccc(-n2c(CCC(=O)O)ccc2-c2cccs2)cc1 70.8 µM [inhibitor, partial curve, poor fit]
CCCOc1ccc(/C=N/Nc2ccc(C(=O)O)cc2)c(OCCC)c1 31.6 µM [inhibitor, partial curve, poor fit]
O=C1c2ccccc2-c2nnc(-c3ccccc3)cc21 39.8 µM [inhibitor, single point]

3 entries out of the list, arranged by number of heavy atoms, descending.
Potency, inconclusive:
O=C(Nc1ccc(S(=O)(=O)Nc2nccs2)cc1)C1=NN(c2ccccc2)C(=O)CC1 44.7 µM [inhibitor, partial curve]
Cc1cccc(C(=O)Nc2ccc(O)c3c(=O)cc(-c4ccccc4Cl)oc23)c1 12.6 µM [inhibitor, partial curve, poor fit]
Cc1ccc(-c2nc(-c3cccnc3)no2)cc1 15.8 µM [inhibitor, partial curve, poor fit]

Next part.

activity, negative = inhibition, inactive:
COc1ccc(NC(=O)CCS(=O)(=O)c2cc3c(cc2C)NC(=O)CO3)cc1Cl 36%
COc1cc2c(cc1OC)CN(C(=O)/C=C/c1cccs1)CC2 58.3%
O=C(CCCc1ccccc1)NCc1ccc(F)cc1 21.2%
O=c1[nH]c(=S)c2[nH]c(=S)n(-c3ccccc3)c2[nH]1 58.6%
Cc1cc(C)nc(NNS(=O)(=O)c2ccc(Cl)cc2)n1 6.18%
CCCCC(=O)c1ccc(O)cc1 43.8%
COC(=O)[C@H](CC(C)C)NC(=O)NCCC1=CCCCC1 53.2%
C/C(CCC(C)C)=N\NS(=O)(=O)c1ccc(C)c([N+](=O)[O-])c1 -9.15%
CCc1ccccc1NC(=O)CCc1c(C)nc2cc(-c3ccccc3)nn2c1C 6.15%
COC(=O)[C@@]1(Cc2ccc(F)cc2)[C@H]2c3cc(C(=O)N4CCCC4)n(CCCNc4ncc(C(F)(F)F)cc4Cl)c3C[C@H]2CN1C(=O)c1ccccc1 14.7%
